These are yes or no findings as the source states them, for the method shown. For part of these data: Where a sequence is shown, tags or fusion partners need not be part of it. One block for each binder: values may come before it.
Experiments:
[1] = biological target: 6-His-KCBP (884–1225) (Arabidopsis) (UniProt Q9FHN8); assay: SEC; Superdex 200 16/60; 50 mM Tris pH 7.5, 150 mM NaCl, 2 mM MgCl2, 0.1 mM ATP, 1 mM TCEP, and either 1 mM EGTA or 2 mM CaCl2; isolated proteins; both purified
[2] = biological target: Arabidopsis KCBP (884–1244) (Arabidopsis) (UniProt Q9FHN8); assay: AUC; sedimentation equilibrium, Beckman Optima XL-A; three concentrations (OD280 ~0.25, ~0.4, ~0.5), 5 speeds between 3,000 and 16,000 rpm, 281 nm, 5.8°C (legend of Figure S1: 20°C); 1-component model; both purified
[3] = biological target: Arabidopsis KCBP (884–1244) (Arabidopsis) (UniProt Q9FHN8); assay: SEC; Superdex 200 16/60; 50 mM Tris pH 7.5, 150 mM NaCl, 2 mM MgCl2, 0.1 mM ATP, 1 mM TCEP, and either 1 mM EGTA or 2 mM CaCl2; isolated proteins; both purified

binding [1]: no binding
B1: 6-His-KCBP (884–1225) (domain or fragment, UniProt Q9FHN8 884-1225)
chain: DMKGKIRVYCRIRPLNEKESSEREKQMLTTVDEFTVEHPWKDDKRKQHIYDRVFDMRASQDDIFEDTKYLVQSAVDGYNVCIFAYGQTGSGKTFTIYGHESNPGLTPRATKELFNILKRDSKRFSFSLKAYMVELYQDTLVDLLLPKSARRLKLEIKKDSKGMVFVENVTTIPISTLEELRMILERGSERRHVSGTNMNEESSRSHLILSVVIESIDLQTQSAARGKLSFVDLAGSERVKKSGSAGCQLKEAQSINKSLSALGDVIGALSSGNQHIPYRNHKLTMLMSDSLGGNAKTLMFVNVSPAESNLDETYNSLLYASRVRTIVNDPSKHISSKEMVRL

binding [2]: no binding | binding [3]: no binding
B2: Arabidopsis KCBP (884–1244) (domain or fragment, UniProt Q9FHN8 884-1244)
chain: DMKGKIRVYCRIRPLNEKESSEREKQMLTTVDEFTVEHPWKDDKRKQHIYDRVFDMRASQDDIFEDTKYLVQSAVDGYNVCIFAYGQTGSGKTFTIYGHESNPGLTPRATKELFNILKRDSKRFSFSLKAYMVELYQDTLVDLLLPKSARRLKLEIKKDSKGMVFVENVTTIPISTLEELRMILERGSERRHVSGTNMNEESSRSHLILSVVIESIDLQTQSAARGKLSFVDLAGSERVKKSGSAGCQLKEAQSINKSLSALGDVIGALSSGNQHIPYRNHKLTMLMSDSLGGNAKTLMFVNVSPAESNLDETYNSLLYASRVRTIVNDPSKHISSKEMVRLKKLVAYWKEQAGKKGEEED

Reference: publication PMC3689661, “Plant Kinesin-Like Calmodulin Binding Protein Employs Its Regulatory Domain for Dimerization” (PLoS ONE, 2013)
